This series concerns U937 cells. The experiment in a line: Interaction of PCI with cellular testisin on U937 cells. The class given is cell-based. Conditions: 20 nM rmPCI.

Results on 1 molecule are retold here after paper PMC4317013 (The Journal of Biological Chemistry, 2014).

B1: rmPCI: recombinant mouse protein C inhibitor with N-terminal His tag (protein, UniProt P70458 25-405, looked up)
Plasma serine protease …: SKKKKAKESSVGAVGPPSSKDFAFRLYRALVSESPGQNVFFSPLSVSMSLGMLSLGAGLKTKTQILDGLGLSLQQGQEDKLHKGFQQLLQRFRQPSDGLQLSLGSALFKDPAVHIRDDFLSAMKTLYMSDTFSTNFGNPEIAKKQINNYVAKQTKGKIVDFIKDLDSTHVMIVVNYIFFKAKWQTAFSETNTHKMDFHVTPKRTTQVPMMNREDGYSYYLDQNISCTVVGIPYQGNAIALFILPSEGKMKQVEDGLDERTLRNWLKMFTKRRLDLYLPKFSIEATYKLENVLPKLGIQDVFTTHADLSGITDHTNIKLSEMVHKSMMEVEESGTTAAAITGAIFTFRSARPSSLKIEFTRPFLLTLMEDSHILFVGKVTRP
modifications: N-terminal His tag
Take B1: the “cleavage by media from PI-PLC-pretreated U937 cells” value (1 and 4 h, 37 °C, Fig. 2D) was “partial degradation”. The “cleavage by PI-PLC-pretreated U937 cells or media from untreated cells” value (1 and 4 h, 37 °C, cells pretreated with 2 units/ml PI-PLC for 30 min, Fig. 2D) is “did not affect the molecular weight”. Moreover, the “detection with anti-penta-His IgG after incubation with U937 cells” value (U937 cells 1 × 10^7 cells/ml, 4 h, Fig. 2B right panel) was “cannot be detected”. For the same molecule, under “U937 cells 1 × 10^7 cells/ml, RMPI 1640 medium, 4 h, 37 °C, anti-mPCI IgG, Fig. 2B”, the “cleavage by U937 cells” value was “is cleaved”.
